Values from PubChem BioAssay AID1671195 (Yale University, 2021)

Aim: 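Genes whose knockdown alters LDL uptake in liver cancer cells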 (primary screen)
Cells: human Huh7 hepatoma cells
Knock-down reagent: siRNA pool against human genes, 18 nM
Timing: about 2 to 2.5 days of knockdown, then 8 h LDL uptake
Treatment: DiI-labelled LDL at 30 µg/ml for 8 h, in lipoprotein-deficient serum medium
Detection: 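Fluorescent LDL signal imaged in cells, scaled to the plate median, robust z-score for each replicate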
Reading the numbers: robust z-score: higher = more LDL uptake after knockdown
Hit rule: 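a gene counts as active if at least two replicate z-scores exceed ±2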
Here is a random part of about 22,000 deposited reagents. Over the whole deposit, about 1,510 (6.9%) are marked active. 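Active includes knockdowns raising or lowering LDL uptake; positive z-scores mean more uptake, negative mean less.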 Unmarked entries are inactive. Reagent sequences are not shown.

no.	gene knocked down	robust z-score, replicate 1	robust z-score, replicate 2	robust z-score, replicate 3
1	TMEM42 (GeneID 131616)	0.855	-0.586	0.571
2	HEY2 (GeneID 23493)	-0.588	0.208	0.616
3	GIMAP7 (GeneID 168537)	0.174	0.312	-0.173
4	TXLNG (GeneID 55787)	-1.89	-1.72	-0.0666
5	B3GALT9 (GeneID 100288842)	-0.408	-0.439	-0.571
6	RBBP9 (GeneID 10741)	1.3	0.599	2.55
7	MYG1 (GeneID 60314)	-0.332	-0.461	-0.808
8	LOC401845 (retired record) (GeneID 401845)	-1.26	-0.652	-0.524
9	SPACA4 (GeneID 171169)	-0.468	-0.502	-0.565
10	ARHGDIG (GeneID 398)	-1.23	-0.337	-1.01
11	SPANXN3 (GeneID 139067)	-2.79	-1.71	-1.8
12	LBX1-AS1 (GeneID 399806)	-1.08	-1.11	-1.26
13	ATP2A2 (GeneID 488)	-1.03	-0.953	-0.75
14	SUB1P1 (GeneID 728938)	-0.366	-0.84	-0.609
15	SOX9 (GeneID 6662)	-2.14 (active)	-1.53	-2.3
16	EPHA6 (GeneID 285220)	0.295	0.0527	-0.187
17	PRSS27 (GeneID 83886)	0.0885	1.05	0.233
18	UBE3C (GeneID 9690)	-0.622	0.672	-0.235
19	FBN2 (GeneID 2201)	1.48	-0.283	0.239
20	LOC390975 (retired record) (GeneID 390975)	0.441	0.11	-0.122
21	MEN1 (GeneID 4221)	1.1	0.695	0.342
22	SLCO1A2 (GeneID 6579)	-2.05 (active)	-2.13	-2.25
23	MUC15 (GeneID 143662)	0.741	0.287	0.697
24	ZNF718 (GeneID 255403)	-0.516	-0.288	-0.211
25	HIBADH (GeneID 11112)	0.0219	-0.439	-0.304
26	AGXT2 (GeneID 64902)	-1.04	-0.878	-0.867
27	EOMES (GeneID 8320)	-0.979	-1.43	-1.36
28	PTX3 (GeneID 5806)	2.19 (active)	1.31	1.95

Look-ups from the entries so far.
Value of HEY2 (GeneID 23493) under “robust z-score, replicate 2”: 0.208
Under “robust z-score, replicate 1”, SPANXN3 (GeneID 139067) is entered as -2.79
Result for PTX3 (GeneID 5806) in “robust z-score, replicate 2”: 1.31 (active)
